# Measurements from the supplement of paper PMC8728848.
# This is one part of the list.
# B1: PX9961Q-bfa-504-27-504 (Bacteroides fragilis) (protein)
# chain: NDWLDRKPADGIPSEDAITNYNDALTARTGMYDGIQGNSNATSYYGARMFYYGDVRADDMQARTQGMRSSSCYEMLYTVDDAPNMWNIPYNVIRRANRLIEAINEKKVTDATEAQIGKIYSEALVVRALVHFDLVRIYGMPYTADNGASLGVPVIVKPLERNDLPSRNTVAEVYTQVITDLTDAINSGYLAKDQTPGYINEWAAKALLTRVYLTKGDNENALKVAEDIITNSPYKLWTNEEYVNAWYKSNGAHTNEMIFEVVNASNDDWTDRNGIAYLLNENGYADAIVTKSFMNMLSQDPKDVRIGMVLPAQYDKDLQEEYGDAKIFINKFPADKDDVGEMRLNNLPLLRLSEVYLSAAEAAAKLGGHQDKAAKYLNEIVQRANPEAKAISEADATVERIILERRKEMIGEGQRYFDALRNNETIVRYKDEGDKGYHYSLIKESQSFDRTYFRAILPIPVDETNVNPNLRAQQNPGY
# Key:
# Experiment in all cases: glycan array binding signal (z-score within array); higher = stronger binding
# Conditions in all cases: glycan notation: IUPAC condensed, linker removed
# [1] = target: Fuc(a1-3)[Gal3S(b1-4)]GlcNAc6S
# Procedure, shortened: (§1)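 Negative Z-scores can be read as non-binding. The Z-score is calculated within each array and then averaged across arrays of one protein sequence at different concentrations or buffers and across linkers. Arrays, 3228 in all, were curated from the Consortium for Functional Glycomics database and kept only where the protein sequence was available.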
# [2] = target: Fuc(a1-3)[GalNAc(b1-4)]GlcNAc
# Procedure, shortened: as §1
# [3] = target: Fuc(a1-3)[GalNAc(b1-4)]GlcNAc6S
# Procedure, shortened: as §1
# [4] = target: Fuc(a1-4)GlcNAc
# Procedure, shortened: as §1
# [5] = target: Fuc(b1-3)GlcNAc
# Procedure, shortened: as §1
# [6] = target: Gal(a1-2)Gal
# Procedure, shortened: as §1
# [7] = target: Gal(a1-3)Gal
# Procedure, shortened: as §1
# [8] = target: Gal(a1-3)Gal(b1-3)GlcNAc
# Procedure, shortened: as §1
# [9] = target: Gal(a1-3)Gal(b1-3)GlcNAc(b1-2)Man
# Procedure, shortened: as §1
# [10] = target: Gal(a1-3)Gal(b1-3)GlcNAc(b1-2)Man(a1-3)[Gal(a1-3)Gal(b1-3)GlcNAc(b1-2)Man(a1-6)]Man(b1-4)GlcNAc(b1-4)GlcNAc
# Procedure, shortened: as §1
# [11] = target: Gal(a1-3)Gal(b1-3)GlcNAc(b1-3)GalNAc
# Procedure, shortened: as §1
# [12] = target: Gal(a1-3)Gal(b1-3)GlcNAc(b1-6)GalNAc
# Procedure, shortened: as §1
# [13] = target: Gal(a1-3)Gal(b1-3)[Fuc(a1-4)]GlcNAc(b1-2)Man(a1-3)[Gal(a1-3)Gal(b1-3)[Fuc(a1-4)]GlcNAc(b1-2)Man(a1-6)]Man(b1-4)GlcNAc(b1-4)GlcNAc
# Procedure, shortened: as §1
# [14] = target: Gal(a1-3)Gal(b1-4)Glc
# Procedure, shortened: as §1
# [15] = target: Gal(a1-3)Gal(b1-4)GlcNAc
# Procedure, shortened: as §1
# [16] = target: Gal(a1-3)Gal(b1-4)GlcNAc(b1-2)Man
# Procedure, shortened: as §1
# [17] = target: Gal(a1-3)Gal(b1-4)GlcNAc(b1-2)Man(a1-3)[Gal(a1-3)Gal(b1-4)GlcNAc(b1-2)Man(a1-6)]Man(b1-4)GlcNAc(b1-4)GlcNAc
# Procedure, shortened: as §1
# [18] = target: Gal(a1-3)Gal(b1-4)GlcNAc(b1-3)GalNAc
# Procedure, shortened: as §1
# [19] = target: Gal(a1-3)Gal(b1-4)GlcNAc(b1-6)GalNAc
# Procedure, shortened: as §1
# [20] = target: Gal(a1-3)Gal(b1-4)[Fuc(a1-3)]GlcNAc
# Procedure, shortened: as §1
# [21] = target: Gal(a1-3)Gal(b1-4)[Fuc(a1-3)]GlcNAc(b1-2)Man(a1-3)[Gal(a1-3)Gal(b1-4)[Fuc(a1-3)]GlcNAc(b1-2)Man(a1-6)]Man(b1-4)GlcNAc(b1-4)GlcNAc
# Procedure, shortened: as §1
# [22] = target: Gal(a1-3)GalNAc
# Procedure, shortened: as §1
# [23] = target: Gal(a1-3)[Gal(a1-4)]Gal(b1-4)GlcNAc
# Procedure, shortened: as §1
# [24] = target: Gal(a1-4)Gal(b1-3)GlcNAc(b1-2)Man(a1-3)[Gal(a1-4)Gal(b1-3)GlcNAc(b1-2)Man(a1-6)]Man(b1-4)GlcNAc(b1-4)GlcNAc
# Procedure, shortened: as §1
# [25] = target: Gal(a1-4)Gal(b1-4)Glc
# Procedure, shortened: as §1
# [26] = target: Gal(a1-4)Gal(b1-4)GlcNAc
# Procedure, shortened: as §1
# [27] = target: Gal(a1-4)Gal(b1-4)GlcNAc(b1-2)Man(a1-3)[Gal(a1-4)Gal(b1-4)GlcNAc(b1-2)Man(a1-6)]Man(b1-4)GlcNAc(b1-4)GlcNAc
# Procedure, shortened: as §1
# [28] = target: Gal(a1-4)Gal(b1-4)GlcNAc(b1-3)Gal(b1-4)Glc
# Procedure, shortened: as §1
# [29] = target: Gal(a1-4)GlcNAc
# Procedure, shortened: as §1
# [30] = target: Gal(a1-6)Glc
# Procedure, shortened: as §1
# [31] = target: Gal(b1-2)Gal
# Procedure, shortened: as §1
# [32] = target: Gal(b1-3)Gal
# Procedure, shortened: as §1
# [33] = target: Gal(b1-3)Gal(b1-4)GlcNAc
# Procedure, shortened: as §1
# [34] = target: Gal(b1-3)GalNAc
# Procedure, shortened: as §1
# [35] = target: Gal(b1-3)GalNAc(a1-3)[Fuc(a1-2)]Gal(b1-4)Glc
# Procedure, shortened: as §1
# [36] = target: Gal(b1-3)GalNAc(a1-3)[Fuc(a1-2)]Gal(b1-4)GlcNAc
# Procedure, shortened: as §1
# [37] = target: Gal(b1-3)GalNAc(b1-3)Gal
# Procedure, shortened: as §1
binder,measurement,setting,value
B1,glycan array binding signal (z-score),[1],-0.537
same,glycan array binding signal (z-score),[2],0.276
same,glycan array binding signal (z-score),[3],-0.385
same,glycan array binding signal (z-score),[4],-0.039
same,glycan array binding signal (z-score),[5],-0.126
same,glycan array binding signal (z-score),[6],0.399
same,glycan array binding signal (z-score),[7],0.757
same,glycan array binding signal (z-score),[8],0.784
same,glycan array binding signal (z-score),[9],-0.818
same,glycan array binding signal (z-score),[10],0.772
same,glycan array binding signal (z-score),[11],-0.341
same,glycan array binding signal (z-score),[12],0.225
same,glycan array binding signal (z-score),[13],8.13
same,glycan array binding signal (z-score),[14],-0.621
same,glycan array binding signal (z-score),[15],-0.489
same,glycan array binding signal (z-score),[16],0.2
same,glycan array binding signal (z-score),[17],-0.179
same,glycan array binding signal (z-score),[18],-0.389
same,glycan array binding signal (z-score),[19],0.211
same,glycan array binding signal (z-score),[20],-0.616
same,glycan array binding signal (z-score),[21],1.6
same,glycan array binding signal (z-score),[22],-0.069
same,glycan array binding signal (z-score),[23],-0.251
same,glycan array binding signal (z-score),[24],2.6
same,glycan array binding signal (z-score),[25],0.623
same,glycan array binding signal (z-score),[26],0.049
same,glycan array binding signal (z-score),[27],0.691
same,glycan array binding signal (z-score),[28],-0.875
same,glycan array binding signal (z-score),[29],-0.289
same,glycan array binding signal (z-score),[30],0.597
same,glycan array binding signal (z-score),[31],0.024
same,glycan array binding signal (z-score),[32],-0.179
same,glycan array binding signal (z-score),[33],-0.515
same,glycan array binding signal (z-score),[34],0.027
same,glycan array binding signal (z-score),[35],0.361
same,glycan array binding signal (z-score),[36],-0.249
same,glycan array binding signal (z-score),[37],-0.301

# Random excerpt: 2 records from the list
binder,measurement,setting,value
B1,glycan array binding signal (z-score),[11],-0.341
same,glycan array binding signal (z-score),[8],0.784
